Assay results published in publication PMC10505911.
These are yes or no findings as the source states them, for the method shown. For part of these data: In cells and extracts the contact can be indirect. Some binding calls cover weakened binding; strength is not graded here. For part of these data: Tags and fused reporters may be left off the sequences shown.

Chains of the proteins cited; added tags and fusions are not shown. Lines headed by an entry give the natural chain unless they say otherwise; changes in a name come on top. A line that says so, or that is headed by a name, gives the form on record, which may keep a tag or linker.
UniProt Q9BY78: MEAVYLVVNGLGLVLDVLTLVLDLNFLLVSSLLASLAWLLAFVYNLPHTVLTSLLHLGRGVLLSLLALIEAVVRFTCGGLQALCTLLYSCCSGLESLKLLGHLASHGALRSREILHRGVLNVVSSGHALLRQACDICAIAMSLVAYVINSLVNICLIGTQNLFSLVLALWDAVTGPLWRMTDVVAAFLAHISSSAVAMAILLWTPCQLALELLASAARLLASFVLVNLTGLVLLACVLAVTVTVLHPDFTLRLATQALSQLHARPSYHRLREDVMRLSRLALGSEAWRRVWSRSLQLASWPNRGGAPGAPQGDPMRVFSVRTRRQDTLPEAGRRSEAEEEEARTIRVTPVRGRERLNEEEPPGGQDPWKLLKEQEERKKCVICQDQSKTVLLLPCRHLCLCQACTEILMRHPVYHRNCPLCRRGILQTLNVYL
Rhodamine-RING-I382R (304–433) (Q9BY78, form named): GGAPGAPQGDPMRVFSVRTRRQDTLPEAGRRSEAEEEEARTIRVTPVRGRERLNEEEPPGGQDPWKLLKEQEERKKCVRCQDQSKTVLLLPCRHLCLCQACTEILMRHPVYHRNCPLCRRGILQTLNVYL
UniProt P08670: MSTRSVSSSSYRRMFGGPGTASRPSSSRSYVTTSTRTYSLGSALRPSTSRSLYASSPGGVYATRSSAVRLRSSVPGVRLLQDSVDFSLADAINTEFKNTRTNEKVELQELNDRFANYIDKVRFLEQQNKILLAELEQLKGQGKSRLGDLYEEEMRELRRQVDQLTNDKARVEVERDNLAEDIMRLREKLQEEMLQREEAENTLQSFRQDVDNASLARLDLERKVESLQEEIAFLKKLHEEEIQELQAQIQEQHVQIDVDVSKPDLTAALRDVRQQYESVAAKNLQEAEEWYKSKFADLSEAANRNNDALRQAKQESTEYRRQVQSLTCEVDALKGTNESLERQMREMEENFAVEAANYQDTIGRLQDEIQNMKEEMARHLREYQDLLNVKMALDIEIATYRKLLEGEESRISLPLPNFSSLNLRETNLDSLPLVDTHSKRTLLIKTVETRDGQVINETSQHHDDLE
UniProt Q86TM6: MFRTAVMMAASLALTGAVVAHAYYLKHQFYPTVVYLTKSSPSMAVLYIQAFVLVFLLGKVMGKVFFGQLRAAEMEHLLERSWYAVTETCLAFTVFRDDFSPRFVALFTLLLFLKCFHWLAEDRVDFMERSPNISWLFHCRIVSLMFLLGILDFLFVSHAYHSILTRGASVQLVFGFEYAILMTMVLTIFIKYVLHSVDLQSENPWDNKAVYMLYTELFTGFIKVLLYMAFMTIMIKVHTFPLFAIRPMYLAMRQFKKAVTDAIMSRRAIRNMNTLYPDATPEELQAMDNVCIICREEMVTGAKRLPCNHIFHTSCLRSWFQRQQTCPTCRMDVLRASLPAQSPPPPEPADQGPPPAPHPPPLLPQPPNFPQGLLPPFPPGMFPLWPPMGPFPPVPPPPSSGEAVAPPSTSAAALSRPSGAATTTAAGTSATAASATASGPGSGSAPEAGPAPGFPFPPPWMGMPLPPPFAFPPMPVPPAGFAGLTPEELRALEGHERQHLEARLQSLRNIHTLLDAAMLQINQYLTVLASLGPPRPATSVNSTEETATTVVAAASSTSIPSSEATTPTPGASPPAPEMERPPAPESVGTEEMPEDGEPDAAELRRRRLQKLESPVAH

Tests used:
[1] = biological target: RFP-RNF26 WT (UniProt Q9BY78); assay: co-IP; U2OS co-transfected with RFP-RNF26 variants and HA-HERP1 or HA-HRD1; lysis in 1% DMNG, 150 mM NaCl, 50 mM Tris-HCl pH 7.5, 5 mM MgCl2; RFP-TRAP beads; western blot
[2] = biological target: RFP-RNF26 I382R (UniProt Q9BY78); assay: as above
[3] = biological target: recombinant His-tagged vimentin (UniProt P08670); assay: in vitro deposition on pre-assembled filaments, confocal fluorescence microscopy; Rhodamine-RING-I382R on pre-assembled His-vimentin filaments; both purified
[4] = biological target: recombinant His-tagged vimentin (UniProt P08670); assay: pull-down; 3 μg his-Vim and 3 μg Rho-RNF26tail in PBS, 30 min at 37°C; his-Vim precipitated on Ni-NTA beads; in-gel Rhodamine fluorescence and vimentin blot; both purified

Row | binding [1] | binding [2] | binding [3] | binding [4] | Molecule
1 | binds | binds |  |  | HA-HRD1 (from UniProt Q86TM6 1-617)
2 |  |  | binds | binds | Rhodamine-RING-I382R (304–433) (from UniProt Q9BY78 304-433) (domain or fragment)
3 | binds | binds |  |  | HA-HERP1 (protein, UniProt Q15011 1-391) MESETEPEPVTLLVKSPNQRHRDLELSGDRGWSVGHLKAHLSRVYPERPRPEDQRLIYSGKLLLDHQCLRDLLPKQEKRHVLHLVCNVKSPSKMPEINAKVAESTEEPAGSNRGQYPEDSSSDGLRQREVLRNLSSPGWENISRPEAAQQAFQGLGPGFSGYTPYGWLQLSWFQQIYARQYYMQYLAATAASGAFVPPPSAQEIPVVSAPAPAPIHNQFPAENQPANQNAAPQVVVNPGANQNLRMNAQGGPIVEEDDEINRDWLDWTYSAATFSVFLSILYFYSSLSRFLMVMGATVVMYLHHVGWFPFRPRPVQNFPNDGPPPDVVNQDPNNNLQEGTDPETEDPNHLPPDRDVLDGEQTSPSFMSTAWLVFKTFFASLLPEGPPAIAN
